Assay in all cases: normalized area under the dose-response curve (viability relative to DMSO control) (fraction); higher = less sensitive (more viable cells)
Holding throughout (settings): exposure time not given

Test [1] relates to OCI-LY1 (cancer type: DLBCL). On the procedure:
(§1)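 25 myeloma and 15 non-Hodgkin lymphoma cell lines were exposed to each of 76 drugs as 7-point log dilutions (0.01 nM–10 µM) in duplicate. Viability was read with CellTiter-Glo and normalised to DMSO (0.1%) and staurosporine (10 µM) plate controls. Normalised AUC was calculated by the trapezoidal method relative to the negative control. -1 is used as a placeholder for no value.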

Test [2] concerns OCI-MY5/CRBN (cancer type: MM). On the procedure:
as §1

Test [3] has as its system JVM2 (cancer type: Mantle). On the procedure: as §1
The test system of test [4] is SU-DHL6 (cancer type: DLBCL). On the procedure: as §1
Test [5] has as its system LP1 (cancer type: MM). On the procedure: as §1
Test [6] deals with OCI-MY5/Vec (cancer type: MM). The protocol:
as §1

The subject of test [7] is SU-DHL2 (cancer type: DLBCL). The protocol: as §1
Test [8] has as its system SU-DHL1 (cancer type: TCL). The protocol:
as §1

The subject of test [9] is KMS12PE (cancer type: MM). The protocol: as §1
Test [10] has as its system MM1.S (cancer type: MM). The protocol:
as §1

Test [11] concerns Se-Ax (cancer type: TCL). On the procedure:
as §1

The test system of test [12] is MM1.R (cancer type: MM). The protocol:
as §1

For test [13], the system named is OCI-LY19 (cancer type: DLBCL). On the procedure: as §1
The subject of test [14] is KMS34 (cancer type: MM). The protocol: as §1
In test [15] the test system is HuT 78 (cancer type: TCL). The protocol:
as §1

The subject of test [16] is OCI-LY3 (cancer type: DLBCL). On the procedure:
as §1

In test [17] the test system is XG2 (cancer type: MM). The protocol: as §1
Test [18] deals with NCI-H929 (cancer type: MM). On the procedure:
as §1

The subject of test [19] is OCI-MY7 (cancer type: MM). On the procedure:
as §1

Data on 1 molecule can be found in the supplement of paper PMC7214452.

Turning to `C[C@@H]1C[C@H](N)C[C@H](c2ccncc2NC(=O)c2ccc(F)c(-c3c(F)cccc3F)n2)C1` [Igh447], the “normalized area under the dose-response curve” value (shortened to “normalized area”) was determined as 0.771 in [1]; 0.866 in test [2]; 0.57 in [3]; 0.748 in test [4]; 0.626 in test [5]; 0.744 in test [6]. Moreover, the “normalized area” value turned out to be 0.645 in test [7]; 0.591 in [8]; 0.63 in test [9]; 0.51 in test [10]; 0.559 in test [11]; 0.57 in test [12]. For the same molecule, the “normalized area” value in test [13] came out at 0.716; in [14], 0.313; in test [15] it was 0.707; in test [16] it was 0.675; in test [17], 0.442; in test [18] it was 0.54. In [19], the “normalized area” value was 0.72.
